As a reminder, the AC50 is the concentration at which the activity in the assay is half-maximal.

This test is described as follows: qHTS Assay to Find Inhibitors of Chronic Active B-Cell Receptor Signaling. The following applies: ABC-DLBCL IkBa-CBG/CBR reporter, luminescence ratio (green luciferase fused to IkBa over red control in TMD8 lymphoma cells), 4 h. The method, boiled down: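 Cell line TMD8 (human ABC DLBCL), stably expressing tet-inducible CBG68-IkBa fusion and CBR; IMDM/0.5% FBS; cpd up to 46 uM; dox induction, 4 h, 37C/5% CO2; dual luminescence; green/red ratio; MG132 control.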

Setting [1] is: measured here: CBR red luminescence, cell number.
The mark [2] stands for this setting: measured here: IkBa-CBG green luminescence.

The list shows a part of the results. Shown are side measurements of this screen, not its main read-out; they come without a call. The list favours compounds with an active or inconclusive main result. The note in brackets gives the kind of curve behind each potency; many fits are weak.

In the case of `COc1ccc2oc(C(=O)Nc3ccccn3)c(C)c2c1`, the concentration at half-maximal activity (AC50) under setting [1] was 7.94 µM [falling, partial curve].
On to `CCS(=O)(=O)n1c(Cc2cccs2)nc2ccccc21`, for which the AC50 under setting [1] was 29.1 µM [falling, partial curve, poor fit].
Take `COc1ccc(C(=O)c2c[nH]cc2-c2ccccc2)cc1`: the AC50 under setting [1] is 29.1 µM [rising, partial curve, poor fit].
`Cc1ccc(S(=O)(=O)CC(=O)N2CCN(c3ccc([N+](=O)[O-])cc3)CC2)cc1`: under setting [1], the AC50 is 5.8 µM [falling, partial curve, poor fit].
Consider `CCOc1ccc(C(=O)NC(=S)Nc2ncccc2C)cc1[N+](=O)[O-]`, for which, under setting [2], the AC50 is 16.4 µM [falling, partial curve, poor fit].
As for `CCOc1ccc(N(CC(=O)NC2CCCCCC2)S(=O)(=O)c2ccccc2)cc1`, the AC50 under setting [1] was 12.6 µM [falling, single point].
The same measure, in the same setting: under `COC(=O)c1cccc(NC2=NS(=O)(=O)c3ccccc32)c1` stands 11.2 µM [falling, single point]; under `COc1ccc(-c2cc(C(=O)NC3=NCCS3)c3ccccc3n2)cc1OC`, 11.2 µM [falling, partial curve, poor fit].
Turning to `CC(O)c1cccc(-c2ccc(CN3C[C@]4(CO)O[C@@H](CO)C[C@@H]4S3(=O)=O)cc2)c1` (stereo partly specified), the AC50 under setting [2] was 14.6 µM [falling, partial curve].
Regarding `C=CCSc1nc2ccccc2c(=O)n1C1CCOC(C)(C)C1` (stereo unspecified), the concentration at half-maximal activity (AC50) under setting [1] is 10 µM [rising, partial curve, poor fit].
In the case of `COc1ccc(-c2oc3cccnc3c2-c2ccc(OC)nc2)cc1`, the concentration at half-maximal activity (AC50) under setting [1] was 35.5 µM [rising, single point].
Regarding `O=C(N=Nc1c(O)[nH]c2ccc(Br)cc12)c1ccccc1-n1cccc1`, the AC50 under setting [1] was 18.4 µM [rising, single point].
Take `COc1ccc(/C=N/NC(=O)c2ccc(-n3cnnn3)cc2)cc1`: under setting [1], the AC50 is 16.4 µM [falling, partial curve, poor fit].
Same read-out and setting: the figure for `CC1CCc2sc3nc(NCc4ccco4)n4ncnc4c3c2C1` (stereo unspecified) is 15.8 µM [rising, single point].
On to `COc1nc(NC(C)(C)C)nc(Oc2ccc(=O)n(-c3ccccc3)n2)n1`, for which, under setting [1], the AC50 is 1.12 µM [rising, full curve].
As for `CCC(C(=O)NCc1ccccc1OC)n1nc(C)n2c(cc3occc32)c1=O` (stereo unspecified), the AC50 under setting [1] is 0.13 µM [falling, full curve, poor fit].
Take `Cc1cc(SCC(=O)c2ccccc2)nc(C)n1`: the AC50 under setting [1] is 35.5 µM [falling, single point].
`O=C(c1cccc(C(F)(F)F)c1)N1CCCC1`: the AC50 under setting [1] is 29.1 µM [falling, single point].
`CCn1cc([N+](=O)[O-])c(C(=O)N2N=C(c3cccc4ccccc34)CC2c2ccccc2O)n1` (stereo unspecified): the half-maximal activity concentration (AC50) under setting [1] is 0.651 µM [falling, partial curve, poor fit].
On to `COc1ccc(NC(=O)CN(C)C(=O)c2cc(-c3ccc(OC)cc3)nc3ccccc23)cc1`, for which the AC50 under setting [1] was 32.6 µM [falling, partial curve, poor fit].
Regarding `CCNC(=S)N(Cc1ccc2c(c1)OCO2)C1CC(=O)N(c2ccc(F)cc2)C1=O` (stereo unspecified), under setting [1], the AC50 is 9.2 µM [falling, partial curve, poor fit].
Still for that read-out and setting: under `CCOC(=O)C1CCN(Cc2c(O)c3ccccc3oc2=O)CC1` stands 0.316 µM [falling, full curve, poor fit]; under `O=C(CCCSc1nnc(Nc2ccccc2F)s1)N1CCOCC1`, 4.47 µM [falling, partial curve].
Still for that read-out and setting: the figure for `O=C(Nc1ccccc1F)N(CCCN1CCOCC1)Cc1cc2cc3c(cc2[nH]c1=O)OCCO3` is 12.6 µM [falling, partial curve, poor fit]; for `COc1cccc(OCCCCSc2ncccn2)c1` it is 0.517 µM [falling, partial curve, poor fit]; for `Cc1ccc(C)c(N2CCN(C(=S)Nc3ccc4nc(N5CCOCC5)cc(C)c4c3)CC2)c1` it is 20 µM [falling, partial curve, poor fit].
For `COc1ccc(C(=O)Nc2cccc(-c3nnc(-c4ccco4)o3)c2)cc1`, the AC50 under setting [1] is 32.6 µM [falling, single point].
Turning to `O=C(CNC(=O)c1ccccn1)N=Nc1c(O)[nH]c2ccccc12`, the AC50 under setting [1] is 12.6 µM [falling, partial curve].
On to `O=C(COc1ccccc1)N1CCN(C(=O)COc2ccccc2)CC1`, for which the AC50 under setting [1] is 0.631 µM [rising, full curve].
On to `O=C(O)CCCNC(=O)Nc1ccccc1`, for which the AC50 under setting [1] is 4.11 µM [rising, full curve].
For `CCOC(=O)c1sc2nc(CC(=O)OC)nc(NCCN3CCOCC3)c2c1C`, the concentration at half-maximal activity (AC50) under setting [1] is 16.4 µM [falling, partial curve, poor fit].
As to `COC(=O)[C@@H]1C[C@@]2(O)[C@H](O)[C@H](O)[C@H](O)C[C@H]2N1CC(c1ccccc1)c1ccccc1`, under setting [1], the concentration at half-maximal activity (AC50) was 0.112 µM [rising, full curve, poor fit].
Regarding `C=C(C)CSc1nnc(-c2ccc(C)cc2)n1N`, the AC50 under setting [1] was 0.58 µM [rising, full curve, poor fit].
For `COc1ccc(-c2nnc(SCc3ccccc3F)o2)cc1OC`, under setting [1], the AC50 is 10 µM [rising, partial curve, poor fit].
On the same count and under the same terms, the figure for `COc1ccccc1C(=O)NCCn1cc(SCC(=O)NCC2CCCO2)c2ccccc21` (stereo unspecified) is 10 µM [falling, partial curve].
Turning to `CCOCCOC(=O)COC(=O)c1ccccc1NC(=O)c1ccccc1`, under setting [1], the AC50 was 29.1 µM [falling, single point].
For the compound `O=C(Nc1cccc(-c2nc3ncccc3o2)c1)c1ccccc1`, the AC50 under setting [1] is 10 µM [falling, single point].
`O=C(NNC(=O)c1n[nH]c(=O)c2ccccc12)c1ccc(Br)cc1`: under setting [1], the half-maximal activity concentration (AC50) is 0.447 µM [rising, full curve, poor fit].
Take `COc1ccc(-n2cnc3cc(NCc4ccco4)ccc32)cc1`: the AC50 under setting [1] is 7.31 µM [rising, partial curve].
Same read-out and setting: under `CCOC(=O)Cc1csc(NC(=O)CSc2ncnc3c2cnn3-c2ccccc2Cl)n1` stands 11.2 µM [falling, partial curve]; under `CNCc1c(OCc2ccc(F)cc2)ccc2ccccc12`, 15.8 µM [falling, single point]; under `CCN(CC)Cc1ccccc1Sc1ccccc1`, 16.4 µM [rising, partial curve, poor fit].
Same read-out and setting: the figure for `O=C(Nc1ccon1)c1cccc(C(F)(F)F)c1` is 16.4 µM [falling, partial curve, poor fit].
Consider `CC(=O)c1sc(NC(=O)c2ccccc2F)nc1-c1ccccc1`, for which the AC50 under setting [1] is 2.51 µM [falling, full curve].
Take `CCOCCCn1c(SCC(=O)N(C)C2CCS(=O)(=O)C2)nc2ccccc2c1=O` (stereo unspecified): under setting [1], the concentration at half-maximal activity (AC50) is 1.84 µM [rising, partial curve, poor fit].
Same read-out and setting: the figure for `CCOC(=O)c1ccc(NC(=O)N2CCc3ccccc3C2)cc1` is 2.51 µM [falling, full curve]; for `CC(C)C[C@H](CO)N(Cc1ccccc1)S(=O)(=O)N(Cc1ccccc1)[C@@H](CO)CC(C)C` it is 6.51 µM [falling, partial curve, poor fit]; for `Cc1onc(-c2ccccc2Cl)c1C(=O)OCC(=O)c1ccccc1` it is 5.17 µM [rising, full curve].
As for `O=c1cc(-c2ccncc2)oc2ccccc12`, the AC50 under setting [1] was 35.5 µM [falling, partial curve, poor fit].
Turning to `O=C(O)c1cccc(N/N=C/C2=C(Cl)c3cc(Cl)ccc3SC2)c1`, the AC50 under setting [1] is 14.1 µM [falling, partial curve].
As to `COc1ccc(C(=O)/C=C/c2ccc(OC)cc2OC)c(O)c1`, under setting [1], the AC50 is 10 µM [falling, partial curve, poor fit].
The same measure, in the same setting: under `O=C(Nc1ccc(F)cc1)Nc1cc(OCC(F)(F)F)cc(OCC(F)(F)F)c1` stands 20.6 µM [falling, single point]; under `O=C(NCc1ccco1)c1ccc2c(c1)N(Cc1ccc(Cl)cc1)C(=O)c1ccccc1S2`, 3.55 µM [falling, full curve].
On to `O=C(Nc1sc2c(c1C(=O)O)CCCC2)c1ccc(Cl)cc1`, for which the AC50 under setting [1] was 0.0794 µM [falling, full curve].
In the case of `Nc1cccc2c1C(=O)N(C(=O)c1ccco1)C2=O`, the AC50 under setting [1] is 0.112 µM [rising, full curve, poor fit].
The same measure, in the same setting: under `O=C(/C=C/Nc1ccc(F)cc1)c1ccc(Br)cc1` stands 7.08 µM [falling, full curve]; under `CCOC(=O)c1cnc(SCc2nc(N)nc(Nc3ccc(F)cc3)n2)nc1N`, 29.1 µM [rising, single point].
Same read-out and setting: the figure for `CC(C)(C)CC(=O)NC(=S)NCCc1ccccc1` is 1.78 µM [rising, full curve]; for `Cc1ccc(C)c(Cn2c(C(=O)OC(C)C)cc3c2ccn3C)c1` it is 7.08 µM [rising, partial curve]; for `CC(C)c1nc(-c2ccccc2)c(-c2ccccc2)[nH]1` it is 1.3 µM [falling, partial curve, poor fit].
Regarding `CN(C)c1cccc(C(=O)NNC(=S)NC2CCCC2)c1`, the concentration at half-maximal activity (AC50) under setting [1] was 11.2 µM [falling, partial curve].
As to `CN(C)S(=O)(=O)c1cccc(NC(=S)N/N=C/C(c2ccccc2)c2ccccc2)c1`, the AC50 under setting [1] is 25.9 µM [rising, single point].
Regarding `CCOc1ccc(/C=C/[N+](=O)[O-])c2ccccc12`, the AC50 by setting is: under setting [1], 35.5 µM [rising, single point]; under setting [2], 28.2 µM [falling, single point].
As to `CSc1ccc(S(=O)(=O)NC2CC3CCC2C3)cc1` (stereo unspecified), the half-maximal activity concentration (AC50) under setting [1] is 1.12 µM [falling, full curve].
With `CCN(Cc1ccccc1)C(=O)C1CCN(Cc2ccc(OC)c(OC)c2OC)CC1`, the AC50 under setting [1] is 29.1 µM [falling, single point].

Values taken from PubChem BioAssay AID493014 (National Center for Advancing Translational Sciences (NCATS), 2011).
